Reference: article PMC9922296, “Mechanistic insights into RNA surveillance by the canonical poly(A) polymerase Pla1 of the MTREC complex” (Nature Communications, 2023)

Key:
[1] = target: T1, C-terminally Flag-ProtA-tagged Red1 Δ288-345 deletion mutant (S. pombe) (UniProt Q9UTR8); assay: affinity purification with mass spectrometry; tandem affinity purification (IgG beads, TEV cleavage with Benzonase, anti-Flag beads, Flag peptide elution) of Red1-FTP from S. pombe extracts; TMT 10plex mass spectrometry of the final eluates
T1 sequence: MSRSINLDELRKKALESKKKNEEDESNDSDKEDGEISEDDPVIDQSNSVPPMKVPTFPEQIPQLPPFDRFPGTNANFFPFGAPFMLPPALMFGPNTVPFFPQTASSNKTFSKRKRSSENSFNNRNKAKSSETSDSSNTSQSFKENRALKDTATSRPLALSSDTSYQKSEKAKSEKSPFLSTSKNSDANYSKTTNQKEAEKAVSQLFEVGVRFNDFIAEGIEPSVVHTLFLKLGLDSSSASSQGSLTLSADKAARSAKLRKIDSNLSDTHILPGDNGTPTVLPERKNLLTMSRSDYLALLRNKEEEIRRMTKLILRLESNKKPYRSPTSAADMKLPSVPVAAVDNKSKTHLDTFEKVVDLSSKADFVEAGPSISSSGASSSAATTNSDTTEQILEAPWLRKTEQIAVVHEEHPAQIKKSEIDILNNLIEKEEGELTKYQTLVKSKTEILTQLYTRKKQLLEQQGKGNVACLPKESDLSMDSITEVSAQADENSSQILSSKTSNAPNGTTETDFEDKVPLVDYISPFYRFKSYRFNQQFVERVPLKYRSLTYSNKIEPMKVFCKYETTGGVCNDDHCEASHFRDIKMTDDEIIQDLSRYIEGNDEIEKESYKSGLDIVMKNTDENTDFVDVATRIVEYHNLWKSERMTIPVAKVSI

[2] = target: T2, C-terminally Flag-ProtA-tagged wild-type Red1 (S. pombe) (UniProt Q9UTR8); assay: as above
T2 sequence: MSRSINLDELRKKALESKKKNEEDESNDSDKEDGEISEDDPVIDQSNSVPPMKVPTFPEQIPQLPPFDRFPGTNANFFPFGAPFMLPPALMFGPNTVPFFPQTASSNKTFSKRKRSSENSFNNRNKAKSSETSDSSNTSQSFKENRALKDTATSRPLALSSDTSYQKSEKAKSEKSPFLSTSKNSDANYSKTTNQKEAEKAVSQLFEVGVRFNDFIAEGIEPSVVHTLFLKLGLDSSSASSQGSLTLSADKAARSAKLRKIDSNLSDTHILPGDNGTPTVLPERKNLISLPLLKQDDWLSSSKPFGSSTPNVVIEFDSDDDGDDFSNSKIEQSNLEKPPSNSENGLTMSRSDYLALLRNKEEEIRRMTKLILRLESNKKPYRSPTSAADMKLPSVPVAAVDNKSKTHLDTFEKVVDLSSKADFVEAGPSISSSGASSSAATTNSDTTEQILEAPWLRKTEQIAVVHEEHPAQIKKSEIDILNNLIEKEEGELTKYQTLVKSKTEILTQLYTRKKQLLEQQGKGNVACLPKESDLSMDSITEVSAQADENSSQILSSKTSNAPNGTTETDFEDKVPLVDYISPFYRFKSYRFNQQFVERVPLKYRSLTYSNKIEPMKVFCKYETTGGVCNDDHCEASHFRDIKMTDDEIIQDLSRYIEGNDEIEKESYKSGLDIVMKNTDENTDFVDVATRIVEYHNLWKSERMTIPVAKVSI

- binding [1]: no binding
- binding [2]: binds
B1: Pla1 subunit of the MTREC complex, endogenous (enzyme, UniProt Q10295 1-566)
chain: MTTKQWGITPPISTAPATEQENALNTALINELKNQNLFESPAESEKRVKVLDELQQITTEFVKKVSLAKHMNEKMANEAGGKIFTYGSYRLGVYGPGSDIDTLVVVPKHVSRDNFFQDLEPMLREREEVTDLAAVPDAYVPIIKFKFLGISIDLIFARLSVPRVPRDLELSDNNLLKGVEERCVLSLNGTRVTDQILQLVPNRAVFKHALRAIKFWAQRRAIYANVVGFPGGVAWAMMVARICQLYPNAVSSVIVAKFFRILHQWNWPQPILLKPIEDGPLQVRIWNPKLYPSDKAHRMPIITPAYPSMCATHNITLSTQTIILREMVRAGEIADQIMVKALPWSALFQKHDFFHRYKHYLTITAAAKTAEAQLKWAGLVESKLRHLVTRLELVDAIALAHPFNKGFDKVYNCSSEEEAQQVASGVTLEVAYESTDHEKLANDTVNEEKADNTESKADGSENGEKQIFPVYTTTCYIGLELEKKKGHPIKRLDISWPTQEFYELCKKWDKYDDTLMNVFIKNTKNTALPDEVFEPGEERPKATKKRSTADTAHSTEQLKRQKVSTA

These are yes or no findings as the source states them, for the method shown. In cells and extracts the contact can be indirect. Here binding means that the protein was enriched with, or labelled near, the bait; the list need not be complete. For some assays here: No binding means not detected with the bait. Where a sequence is shown, tags or fusion partners need not be part of it.
